Results reported in article PMC11609542.
Results are given in words; binding and its absence hold for the method and conditions named. In cells and extracts the contact can be indirect. Here binding means that the protein was enriched with, or labelled near, the bait; the list need not be complete.

Chains of the proteins cited; added tags and fusions are not shown. Residues count along the entry.
UniProt Q8TEB1: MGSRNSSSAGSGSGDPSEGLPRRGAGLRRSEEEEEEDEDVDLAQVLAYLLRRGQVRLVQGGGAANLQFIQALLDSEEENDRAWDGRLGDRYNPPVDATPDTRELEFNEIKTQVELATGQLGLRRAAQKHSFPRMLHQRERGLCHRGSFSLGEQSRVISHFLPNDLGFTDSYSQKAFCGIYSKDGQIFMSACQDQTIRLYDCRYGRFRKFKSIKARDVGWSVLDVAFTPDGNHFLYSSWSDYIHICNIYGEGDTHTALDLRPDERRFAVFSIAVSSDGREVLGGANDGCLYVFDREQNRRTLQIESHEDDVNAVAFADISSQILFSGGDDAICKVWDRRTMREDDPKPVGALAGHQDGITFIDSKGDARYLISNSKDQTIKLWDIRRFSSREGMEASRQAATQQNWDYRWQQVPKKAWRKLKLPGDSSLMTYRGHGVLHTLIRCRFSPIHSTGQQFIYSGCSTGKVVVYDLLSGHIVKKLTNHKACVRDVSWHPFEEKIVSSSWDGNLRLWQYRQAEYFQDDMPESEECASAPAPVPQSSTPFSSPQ
UniProt Q9UNE7: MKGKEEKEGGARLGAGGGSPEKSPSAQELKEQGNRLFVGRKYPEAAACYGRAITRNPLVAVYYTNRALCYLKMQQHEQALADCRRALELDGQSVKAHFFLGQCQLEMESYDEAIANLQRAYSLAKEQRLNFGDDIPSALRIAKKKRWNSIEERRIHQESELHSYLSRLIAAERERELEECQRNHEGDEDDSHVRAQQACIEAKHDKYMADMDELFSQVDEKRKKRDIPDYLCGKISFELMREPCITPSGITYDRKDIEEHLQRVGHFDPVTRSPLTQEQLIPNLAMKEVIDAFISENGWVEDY
UniProt Q08945: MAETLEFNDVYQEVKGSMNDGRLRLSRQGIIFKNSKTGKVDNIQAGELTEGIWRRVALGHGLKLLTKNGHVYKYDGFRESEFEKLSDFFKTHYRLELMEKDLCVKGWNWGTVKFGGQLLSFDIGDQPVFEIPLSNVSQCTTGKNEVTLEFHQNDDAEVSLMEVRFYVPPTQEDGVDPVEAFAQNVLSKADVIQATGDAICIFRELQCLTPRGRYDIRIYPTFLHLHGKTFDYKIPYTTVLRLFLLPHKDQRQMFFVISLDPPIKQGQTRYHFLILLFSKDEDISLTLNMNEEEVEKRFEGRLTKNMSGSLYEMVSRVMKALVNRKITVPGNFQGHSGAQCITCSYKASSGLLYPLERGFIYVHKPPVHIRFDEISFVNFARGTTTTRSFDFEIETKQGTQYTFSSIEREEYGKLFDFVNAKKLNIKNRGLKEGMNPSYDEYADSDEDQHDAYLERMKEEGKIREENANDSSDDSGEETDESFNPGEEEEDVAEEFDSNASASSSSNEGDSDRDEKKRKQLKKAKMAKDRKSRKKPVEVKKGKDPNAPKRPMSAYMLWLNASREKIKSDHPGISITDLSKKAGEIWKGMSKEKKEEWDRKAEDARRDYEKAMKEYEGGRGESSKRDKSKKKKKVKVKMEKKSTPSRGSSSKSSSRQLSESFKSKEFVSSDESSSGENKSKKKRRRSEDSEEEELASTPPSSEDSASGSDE
UniProt Q9H9Q2: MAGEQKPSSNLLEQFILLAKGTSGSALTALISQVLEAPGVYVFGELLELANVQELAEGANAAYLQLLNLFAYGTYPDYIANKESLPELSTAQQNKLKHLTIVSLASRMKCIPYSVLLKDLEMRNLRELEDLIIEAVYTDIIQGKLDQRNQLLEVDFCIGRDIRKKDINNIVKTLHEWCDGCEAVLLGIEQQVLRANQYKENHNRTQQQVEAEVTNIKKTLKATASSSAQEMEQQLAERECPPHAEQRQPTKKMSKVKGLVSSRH
UniProt P54652: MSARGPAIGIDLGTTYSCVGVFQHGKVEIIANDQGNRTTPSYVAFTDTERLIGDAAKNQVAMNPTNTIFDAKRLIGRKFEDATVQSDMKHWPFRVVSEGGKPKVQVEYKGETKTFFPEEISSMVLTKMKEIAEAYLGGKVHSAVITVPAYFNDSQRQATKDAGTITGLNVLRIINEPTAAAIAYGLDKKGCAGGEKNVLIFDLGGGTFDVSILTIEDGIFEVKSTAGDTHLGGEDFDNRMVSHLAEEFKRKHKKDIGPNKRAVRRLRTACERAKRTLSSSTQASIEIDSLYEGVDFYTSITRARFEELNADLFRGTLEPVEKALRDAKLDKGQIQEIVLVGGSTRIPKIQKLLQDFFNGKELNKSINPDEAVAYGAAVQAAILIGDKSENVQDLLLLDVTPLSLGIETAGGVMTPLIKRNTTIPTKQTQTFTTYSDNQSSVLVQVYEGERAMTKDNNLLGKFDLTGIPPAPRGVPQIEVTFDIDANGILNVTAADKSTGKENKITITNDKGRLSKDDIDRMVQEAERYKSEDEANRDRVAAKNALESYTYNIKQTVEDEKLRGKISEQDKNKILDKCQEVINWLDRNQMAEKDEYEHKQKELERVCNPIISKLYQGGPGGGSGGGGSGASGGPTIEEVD
UniProt P27816: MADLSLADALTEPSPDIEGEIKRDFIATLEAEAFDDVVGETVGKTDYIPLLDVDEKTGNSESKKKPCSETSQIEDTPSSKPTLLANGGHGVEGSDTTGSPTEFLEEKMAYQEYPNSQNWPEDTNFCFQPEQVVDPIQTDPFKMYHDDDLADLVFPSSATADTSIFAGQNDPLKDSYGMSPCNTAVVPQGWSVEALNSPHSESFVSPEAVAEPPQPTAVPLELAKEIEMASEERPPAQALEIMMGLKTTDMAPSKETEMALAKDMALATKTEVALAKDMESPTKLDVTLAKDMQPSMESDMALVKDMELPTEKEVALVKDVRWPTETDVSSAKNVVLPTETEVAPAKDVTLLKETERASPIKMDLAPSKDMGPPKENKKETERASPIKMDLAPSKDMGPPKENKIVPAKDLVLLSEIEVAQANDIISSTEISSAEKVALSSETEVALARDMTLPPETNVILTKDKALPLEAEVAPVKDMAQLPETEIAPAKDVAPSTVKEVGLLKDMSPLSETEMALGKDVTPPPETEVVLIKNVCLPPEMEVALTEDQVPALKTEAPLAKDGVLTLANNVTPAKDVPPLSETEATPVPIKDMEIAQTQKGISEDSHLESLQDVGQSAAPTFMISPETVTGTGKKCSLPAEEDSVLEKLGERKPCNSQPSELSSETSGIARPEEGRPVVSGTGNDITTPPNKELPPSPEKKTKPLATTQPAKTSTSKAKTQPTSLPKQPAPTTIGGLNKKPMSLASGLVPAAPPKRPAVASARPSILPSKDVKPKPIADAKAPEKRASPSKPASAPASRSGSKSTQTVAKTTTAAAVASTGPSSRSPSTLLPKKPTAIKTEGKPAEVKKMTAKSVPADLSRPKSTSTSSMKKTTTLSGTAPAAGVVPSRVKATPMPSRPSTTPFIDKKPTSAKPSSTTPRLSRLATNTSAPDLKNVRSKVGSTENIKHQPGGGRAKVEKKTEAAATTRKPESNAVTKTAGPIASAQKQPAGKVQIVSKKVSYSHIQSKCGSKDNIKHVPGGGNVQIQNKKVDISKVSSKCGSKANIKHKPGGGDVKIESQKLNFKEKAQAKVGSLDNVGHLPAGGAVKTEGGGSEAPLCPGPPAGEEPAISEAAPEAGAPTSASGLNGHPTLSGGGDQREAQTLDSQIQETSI
UniProt Q16531: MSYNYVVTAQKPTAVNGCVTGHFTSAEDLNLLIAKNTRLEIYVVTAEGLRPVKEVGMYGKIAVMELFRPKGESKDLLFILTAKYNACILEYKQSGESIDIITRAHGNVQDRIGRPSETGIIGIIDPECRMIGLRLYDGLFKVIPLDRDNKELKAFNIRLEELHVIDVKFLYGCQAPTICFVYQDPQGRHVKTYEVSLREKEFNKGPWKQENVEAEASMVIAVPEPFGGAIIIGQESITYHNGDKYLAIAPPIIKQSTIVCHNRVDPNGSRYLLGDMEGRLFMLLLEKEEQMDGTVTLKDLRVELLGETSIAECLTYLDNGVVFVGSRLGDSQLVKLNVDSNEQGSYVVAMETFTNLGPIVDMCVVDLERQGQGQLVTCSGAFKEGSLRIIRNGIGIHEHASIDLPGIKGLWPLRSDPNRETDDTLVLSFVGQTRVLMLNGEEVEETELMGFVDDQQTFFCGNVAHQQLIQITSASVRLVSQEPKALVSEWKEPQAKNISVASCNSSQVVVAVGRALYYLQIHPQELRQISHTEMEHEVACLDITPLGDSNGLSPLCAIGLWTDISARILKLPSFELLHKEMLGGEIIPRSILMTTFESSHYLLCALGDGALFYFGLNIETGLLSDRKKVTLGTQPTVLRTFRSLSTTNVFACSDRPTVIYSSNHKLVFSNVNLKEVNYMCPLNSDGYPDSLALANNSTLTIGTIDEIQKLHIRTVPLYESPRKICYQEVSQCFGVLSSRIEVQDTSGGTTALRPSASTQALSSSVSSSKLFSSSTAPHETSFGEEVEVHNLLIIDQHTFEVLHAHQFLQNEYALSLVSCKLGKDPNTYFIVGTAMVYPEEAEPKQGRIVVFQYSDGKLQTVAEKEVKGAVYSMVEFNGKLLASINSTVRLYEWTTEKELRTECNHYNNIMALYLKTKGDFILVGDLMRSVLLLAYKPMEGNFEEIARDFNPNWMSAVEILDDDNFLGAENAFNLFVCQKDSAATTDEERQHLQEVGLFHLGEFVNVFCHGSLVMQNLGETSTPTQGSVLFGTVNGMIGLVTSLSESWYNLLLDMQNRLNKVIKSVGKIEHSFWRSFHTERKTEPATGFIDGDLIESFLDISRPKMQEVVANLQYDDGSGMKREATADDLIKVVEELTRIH
UniProt P40939, residues 37-763: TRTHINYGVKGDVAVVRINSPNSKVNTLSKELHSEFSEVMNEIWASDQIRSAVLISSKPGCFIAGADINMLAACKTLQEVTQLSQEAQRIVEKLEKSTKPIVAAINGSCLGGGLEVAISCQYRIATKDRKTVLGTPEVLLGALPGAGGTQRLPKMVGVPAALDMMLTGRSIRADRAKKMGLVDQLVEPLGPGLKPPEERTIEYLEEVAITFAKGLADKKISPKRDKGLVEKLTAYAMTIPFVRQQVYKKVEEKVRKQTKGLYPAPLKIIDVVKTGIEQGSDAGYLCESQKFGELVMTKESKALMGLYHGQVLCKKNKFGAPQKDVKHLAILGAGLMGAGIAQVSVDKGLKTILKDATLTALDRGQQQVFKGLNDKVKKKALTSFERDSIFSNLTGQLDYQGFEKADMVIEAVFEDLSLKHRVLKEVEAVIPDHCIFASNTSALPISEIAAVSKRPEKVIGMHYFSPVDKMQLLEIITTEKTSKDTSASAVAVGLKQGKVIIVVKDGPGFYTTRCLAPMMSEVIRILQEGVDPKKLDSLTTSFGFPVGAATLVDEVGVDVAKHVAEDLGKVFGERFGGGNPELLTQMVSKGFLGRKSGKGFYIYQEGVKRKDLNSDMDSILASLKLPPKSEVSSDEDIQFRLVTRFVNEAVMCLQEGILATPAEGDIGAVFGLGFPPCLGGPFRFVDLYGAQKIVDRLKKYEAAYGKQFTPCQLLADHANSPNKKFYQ
UniProt Q13620: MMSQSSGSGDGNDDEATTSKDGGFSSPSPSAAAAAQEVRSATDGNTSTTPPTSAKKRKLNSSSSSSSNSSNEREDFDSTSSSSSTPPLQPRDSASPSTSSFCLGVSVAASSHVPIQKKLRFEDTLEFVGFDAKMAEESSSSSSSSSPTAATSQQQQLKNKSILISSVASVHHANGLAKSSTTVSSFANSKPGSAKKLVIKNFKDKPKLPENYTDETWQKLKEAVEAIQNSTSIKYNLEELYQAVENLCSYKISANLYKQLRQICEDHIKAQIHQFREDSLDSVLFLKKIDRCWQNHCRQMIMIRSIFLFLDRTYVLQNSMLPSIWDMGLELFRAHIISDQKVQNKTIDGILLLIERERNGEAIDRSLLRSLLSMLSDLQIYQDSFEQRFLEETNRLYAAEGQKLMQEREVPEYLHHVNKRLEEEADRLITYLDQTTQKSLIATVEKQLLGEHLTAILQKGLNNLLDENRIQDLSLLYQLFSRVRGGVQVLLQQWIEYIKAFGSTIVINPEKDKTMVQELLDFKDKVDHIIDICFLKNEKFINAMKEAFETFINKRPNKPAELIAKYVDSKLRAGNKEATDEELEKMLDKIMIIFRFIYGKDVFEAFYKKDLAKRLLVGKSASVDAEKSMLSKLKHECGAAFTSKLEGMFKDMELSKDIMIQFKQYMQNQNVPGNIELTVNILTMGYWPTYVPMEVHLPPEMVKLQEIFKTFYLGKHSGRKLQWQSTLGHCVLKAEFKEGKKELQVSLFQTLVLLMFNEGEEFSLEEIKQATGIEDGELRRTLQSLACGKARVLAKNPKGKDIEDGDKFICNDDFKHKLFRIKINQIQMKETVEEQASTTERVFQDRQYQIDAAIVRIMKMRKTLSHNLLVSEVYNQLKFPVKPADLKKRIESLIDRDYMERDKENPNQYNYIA

Biological target: Strep-tagged DCAF11 (human) (UniProt Q8TEB1)
Experiment: affinity purification with mass spectrom

binding, binds:
COP9 signalosome subunit COPS5 (from UniProt Q92905 1-334)
STUB1 E3 ubiquitin ligase (from UniProt Q9UNE7 1-303) (enzyme)
SSRP component of the FACT complex (from UniProt Q08945 1-709)
COP9 signalosome subunit GPS1 (from UniProt Q13098 1-491)
COP9 signalosome subunit COPS7B (from UniProt Q9H9Q2 1-264)
HSPA2 chaperone (from UniProt P54652 1-639)
microtubule-associated protein MAP4 (from UniProt P27816 1-1152)

Biological target: Strep-tagged DDB1 (human) (UniProt Q16531)
Experiment: affinity purification with mass spectrom

binding, binds:
HADHA enzyme of the mitochondrial beta-oxidation pathway (from UniProt P40939 37-763)
COP9 signalosome subunit GPS1 (from UniProt Q13098 1-491)
Cul4B (from UniProt Q13620 1-913)
